The list shows a part of the results.
compound: Cc1cc(ccc1-c1ccccc1)C(=O)N1CCCN(CC1)C(=O)CCl [compound 10]; test: probe-labelled cysteine peptide fold change vs DMSO (competition) (log2 fold change); higher = less target engagement (more negative = stronger competition); conditions: 50 µM; THP-1; incubation time: 4 h
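Note: competitive profiling in live THP-1 cells: cysteine peptides tagged with an iodoacetamide desthiobiotin (IA-DTB) probe, intensity after compound treatment relative to DMSO-treated cells.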

Target	probe-labelled cysteine peptide fold change
GLYR1_Q49A26_356_CYVDMSTVDADTVTELAQVIVSR (UniProt Q49A26)	0.446
GLG1_Q92896_984_LSSDCEDQIR (UniProt Q92896)	0.133
GNS_P15586_513_LMMLQSCSGPTCR (UniProt P15586)	0.0702
GNB1_P62873_25_ACADATLSQITNNIDPVGR (UniProt P62873)	-0.0757
GMIP_Q9P107_525_ECEAFMVSGTECEECFLTCHK (UniProt Q9P107)	0.0809
GNB1_P62873_148_ELAGHTGYLSCCR (UniProt P62873)	-0.309
GLG1_Q92896_639_CLIDLGK (UniProt Q92896)	0.0807
GNPDA2_Q8TDQ7_118_HIDIDPNNAHILDGNAADLQAECDAFENK (UniProt Q8TDQ7)	0.27
GNL3_Q9BVP2_131_LYCQELK (UniProt Q9BVP2)	0.148
GNB2_P62879_25_ACGDSTLTQITAGLDPVGR (UniProt P62879)	0.388
GPD1L_Q8N335_343_PVQEMLSCLQSHPEHT (UniProt Q8N335)	0.686
GOT2_P00505_272+274_HFIEQGINVCLCQSYAK (UniProt P00505)	-0.495
GOLGA4_Q13439_1862_ELDSCLVR (UniProt Q13439)	-0.159
GLRX_P35754_26_VVVFIKPTCPYCR (UniProt P35754)	-3.44
GPHN_Q9NQX3_154_GSQECFQFILPALPHAIDLLR (UniProt Q9NQX3)	-0.0218
GNPAT_O15228_478_VDSGDSEVVDGLMLQHITLLMCSAYR (UniProt O15228)	0.562
GNPDA1_P46926_118_HIDIHPENTHILDGNAVDLQAECDAFEEK (UniProt P46926)	0.04
GOSR2_O14653_18_QVHEIQSCMGR (UniProt O14653)	-0.00208
GPRIN1_Q7Z2K8_221_VDPLCSSK (UniProt Q7Z2K8)	-0.177
GNS_P15586_518_LMMLQSCSGPTCR (UniProt P15586)	-0.0586
GLMP_Q8WWB7_216_LLHTADTCQLEVALIGASPR (UniProt Q8WWB7)	-0.177
GMIP_Q9P107_274_AQEAEALYQACVR (UniProt Q9P107)	0.0797

Random excerpt: two records from the list, in no set order.
Target	probe-labelled cysteine peptide fold change
GOT2_P00505_272+274_HFIEQGINVCLCQSYAK (UniProt P00505)	-0.495
GNPDA2_Q8TDQ7_118_HIDIDPNNAHILDGNAADLQAECDAFENK (UniProt Q8TDQ7)	0.27

Reference: the supplement of paper PMC12067093, “Discovery and optimisation of a covalent ligand for TRIM25 and its application to targeted protein ubiquitination” (Chemical Science, 2025)
